Source: PMC5325215
No constants are given. Whether binding was seen depends on the method and setting. In cells and extracts the contact can be indirect. For part of these data: A result given as binding can be weak or reduced; the word gives no strength. Tags and fused reporters may be left off the sequences shown.

What was measured:
[1] = molecular target: T1, 3 x FLAG tagged full-length FILIP (rat L-FILIP) (rat) (UniProt Q8K4T4); assay: co-IP; COS-7 cells transfected with FLAG-tagged FILIP or deletion mutants; immunoprecipitation with anti-FLAG M2 on Protein G Dynabeads, 4°C, 3 hours; blots with anti-Hsc70 or anti-NMHCIIb; in Fig 4E also with expression of Hsc70 or Hsc70 K71M
T1 sequence: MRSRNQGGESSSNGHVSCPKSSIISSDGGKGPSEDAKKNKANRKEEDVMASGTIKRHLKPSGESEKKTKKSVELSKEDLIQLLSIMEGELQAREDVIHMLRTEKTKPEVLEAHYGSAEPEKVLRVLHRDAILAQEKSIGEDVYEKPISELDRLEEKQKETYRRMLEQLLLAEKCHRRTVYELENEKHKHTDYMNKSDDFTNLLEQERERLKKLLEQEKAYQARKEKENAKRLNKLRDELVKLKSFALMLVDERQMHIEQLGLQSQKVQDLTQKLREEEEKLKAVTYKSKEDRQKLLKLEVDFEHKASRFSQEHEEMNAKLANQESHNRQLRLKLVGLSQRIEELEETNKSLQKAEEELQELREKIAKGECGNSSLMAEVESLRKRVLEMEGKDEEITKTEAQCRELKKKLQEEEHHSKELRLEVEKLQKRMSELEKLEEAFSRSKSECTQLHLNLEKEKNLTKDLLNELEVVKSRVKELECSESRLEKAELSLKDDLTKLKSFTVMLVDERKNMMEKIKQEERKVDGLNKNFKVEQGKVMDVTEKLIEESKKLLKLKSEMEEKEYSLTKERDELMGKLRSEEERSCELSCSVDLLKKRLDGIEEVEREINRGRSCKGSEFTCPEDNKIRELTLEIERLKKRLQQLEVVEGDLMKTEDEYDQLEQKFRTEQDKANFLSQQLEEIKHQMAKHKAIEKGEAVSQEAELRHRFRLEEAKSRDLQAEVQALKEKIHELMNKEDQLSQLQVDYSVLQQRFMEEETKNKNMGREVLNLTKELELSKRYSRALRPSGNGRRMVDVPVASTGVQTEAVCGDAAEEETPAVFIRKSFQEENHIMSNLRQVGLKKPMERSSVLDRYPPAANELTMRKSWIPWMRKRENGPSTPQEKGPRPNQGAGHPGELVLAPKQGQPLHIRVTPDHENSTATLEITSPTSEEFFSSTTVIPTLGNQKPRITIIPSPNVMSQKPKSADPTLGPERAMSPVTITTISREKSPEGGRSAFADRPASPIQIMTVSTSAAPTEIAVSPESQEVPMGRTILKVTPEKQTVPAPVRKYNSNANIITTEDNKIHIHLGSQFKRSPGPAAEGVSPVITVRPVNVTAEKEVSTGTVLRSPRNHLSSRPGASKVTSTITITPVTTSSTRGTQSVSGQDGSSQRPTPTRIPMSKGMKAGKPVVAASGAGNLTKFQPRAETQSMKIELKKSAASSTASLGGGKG

[2] = molecular target: T2, FILIP d872-1111 (3 x FLAG tagged) (rat) (UniProt Q8K4T4); assay: as above
T2 sequence: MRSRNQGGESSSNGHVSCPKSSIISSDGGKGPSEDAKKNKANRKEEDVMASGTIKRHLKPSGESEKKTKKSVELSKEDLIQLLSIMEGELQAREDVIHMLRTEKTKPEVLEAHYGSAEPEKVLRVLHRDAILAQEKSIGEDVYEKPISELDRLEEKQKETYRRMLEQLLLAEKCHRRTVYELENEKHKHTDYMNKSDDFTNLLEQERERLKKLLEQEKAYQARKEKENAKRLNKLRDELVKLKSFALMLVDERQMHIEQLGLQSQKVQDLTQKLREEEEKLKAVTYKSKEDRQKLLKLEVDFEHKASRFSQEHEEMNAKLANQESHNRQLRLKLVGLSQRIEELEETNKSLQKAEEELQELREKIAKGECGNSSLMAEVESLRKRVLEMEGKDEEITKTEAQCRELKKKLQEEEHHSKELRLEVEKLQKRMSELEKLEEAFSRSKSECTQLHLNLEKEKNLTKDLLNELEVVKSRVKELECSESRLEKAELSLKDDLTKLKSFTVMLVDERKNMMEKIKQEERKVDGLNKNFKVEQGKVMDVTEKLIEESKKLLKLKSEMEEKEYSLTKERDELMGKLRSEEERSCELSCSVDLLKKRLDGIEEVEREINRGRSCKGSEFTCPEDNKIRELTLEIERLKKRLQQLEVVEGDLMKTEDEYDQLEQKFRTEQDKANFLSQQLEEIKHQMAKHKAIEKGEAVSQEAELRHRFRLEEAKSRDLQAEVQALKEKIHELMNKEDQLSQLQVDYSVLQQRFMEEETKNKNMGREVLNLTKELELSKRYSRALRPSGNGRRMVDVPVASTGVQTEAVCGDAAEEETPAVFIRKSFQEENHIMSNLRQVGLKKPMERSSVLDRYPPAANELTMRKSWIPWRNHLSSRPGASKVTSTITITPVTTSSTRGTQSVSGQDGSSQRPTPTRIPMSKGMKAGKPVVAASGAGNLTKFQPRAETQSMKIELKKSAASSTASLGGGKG

[3] = molecular target: Hsc70 (endogenous, COS-7 cells) (African green monkey (endogenous in COS-7)); assay: co-IP; COS-7 cells transfected with FLAG tagged FILIP; immunoprecipitation with an anti-Hsc70 antibody

Q: Which results are given for Hsc70 (endogenous, COS-7 cells)?
A: binding [1]: binds; binding [2]: no binding

B1: 3 x FLAG tagged full-length FILIP (rat L-FILIP) (protein, UniProt Q8K4T4-1 1-1212)
chain: T1 sequence
Q: With B1 as the molecule, how does the binding [3] read?
A: Its binding is “binds”.
